US20250074896A1, “ARYLTETRAHYDROPYRIDAZINE DERIVATIVE OR SALT THEREOF AND INSECTICIDAL AGENT CONTAINING THE COMPOUND AND METHOD FOR USING SAME” (NIHON NOHYAKU CO., LTD., priority 2021, published 2025)
Some results were stated once for a whole list of compounds, not compound by compound.

Experiments:
[1] = system: Western Flower Thrips (Frankliniella occidentalis); assay: Insecticidal test on western flower thrips (kidney bean leaf pieces, hatched larvae); type: in vivo; conditions: 4 days after the treatment
[2] = system: Small Brown Planthopper (Laodelphax striatellus); assay: Insecticidal test on small brown planthopper (dipped rice seedlings, 3rd-instar larvae); type: in vivo; conditions: rice seedlings dipped 30 seconds, 8 days after inoculation

COC(=O)N1C(=O)C(C(=O)Nc2ccc(F)nc2)=C(O)CN1c1ccc(C#N)cc1 [3-226]
A (the mortality rate is 100%): insecticidal efficacy (corrected mortality rate) against western flower thrips ([1]; 50 ppm) | insecticidal efficacy (corrected mortality rate) against western flower thrips ([1]; 500 ppm) | insecticidal efficacy (corrected mortality rate) against small brown planthopper ([2]; 50 ppm) | insecticidal efficacy (corrected mortality rate) against small brown planthopper ([2]; 500 ppm)

COC(=O)N1C(=O)C(C(=O)Nc2ccc(OC)cc2)=C(O)CN1c1cnc(C#N)c(C)c1 [3-631]
A (the mortality rate is 100%): insecticidal efficacy (corrected mortality rate) against western flower thrips ([1]; 50 ppm) | insecticidal efficacy (corrected mortality rate) against western flower thrips ([1]; 500 ppm) | insecticidal efficacy (corrected mortality rate) against small brown planthopper ([2]; 50 ppm) | insecticidal efficacy (corrected mortality rate) against small brown planthopper ([2]; 500 ppm)

COC(=O)N1C(=O)C(C(=O)Nc2cccc(OC)n2)=C(O)CN1c1ccc(C#N)cc1 [3-445]
A (the mortality rate is 100%): insecticidal efficacy (corrected mortality rate) against western flower thrips ([1]; 50 ppm) | insecticidal efficacy (corrected mortality rate) against western flower thrips ([1]; 500 ppm) | insecticidal efficacy (corrected mortality rate) against small brown planthopper ([2]; 50 ppm) | insecticidal efficacy (corrected mortality rate) against small brown planthopper ([2]; 500 ppm)

O=C1NN(c2ccc(C(F)(F)F)nc2)CC(O)=C1C(=O)N1CCc2cc(F)ccc21 [6-4]
A (the mortality rate is 100%): insecticidal efficacy (corrected mortality rate) against western flower thrips ([1]; 500 ppm) | insecticidal efficacy (corrected mortality rate) against small brown planthopper ([2]; 500 ppm)

COC(=O)N1C(=O)C(C(=O)Nc2cnn(C)c2)=C(O)CN1c1cnc(C#N)c(Cl)c1 [3-466]
A (the mortality rate is 100%): insecticidal efficacy (corrected mortality rate) against western flower thrips ([1]; 500 ppm) | insecticidal efficacy (corrected mortality rate) against small brown planthopper ([2]; 50 ppm) | insecticidal efficacy (corrected mortality rate) against small brown planthopper ([2]; 500 ppm)

COC(=O)N1C(=O)C(C(=O)Nc2ccc(Cl)cn2)=C(O)CN1c1ccc(Br)nc1 [3-116]
A (the mortality rate is 100%): insecticidal efficacy (corrected mortality rate) against western flower thrips ([1]; 50 ppm) | insecticidal efficacy (corrected mortality rate) against western flower thrips ([1]; 500 ppm) | insecticidal efficacy (corrected mortality rate) against small brown planthopper ([2]; 50 ppm) | insecticidal efficacy (corrected mortality rate) against small brown planthopper ([2]; 500 ppm)

COC(=O)N1C(=O)C(C(=O)Nc2ccc(C)nc2)=C(O)CN1c1ccc(C#N)cc1 [3-543]
A (the mortality rate is 100%): insecticidal efficacy (corrected mortality rate) against western flower thrips ([1]; 500 ppm) | insecticidal efficacy (corrected mortality rate) against small brown planthopper ([2]; 50 ppm) | insecticidal efficacy (corrected mortality rate) against small brown planthopper ([2]; 500 ppm)

Cn1cc(NC(=O)C2=C(O)CN(c3ccc(Cl)nc3)NC2=O)cn1 [1-299]
A (the mortality rate is 100%): insecticidal efficacy (corrected mortality rate) against western flower thrips ([1]; 500 ppm) | insecticidal efficacy (corrected mortality rate) against small brown planthopper ([2]; 50 ppm) | insecticidal efficacy (corrected mortality rate) against small brown planthopper ([2]; 500 ppm)

CC(C)(C)OC(=O)N1C(=O)C(C(=S)Nc2cccnc2)=C(O)CN1c1ccc(C(F)(F)F)nc1 [4-44]
A (the mortality rate is 100%): insecticidal efficacy (corrected mortality rate) against western flower thrips ([1]; 500 ppm) | insecticidal efficacy (corrected mortality rate) against small brown planthopper ([2]; 500 ppm)

COc1ccc(NC(=O)C2=C(O)CN(c3ccc(C#N)cc3)NC2=O)cn1 [1-186]
A (the mortality rate is 100%): insecticidal efficacy (corrected mortality rate) against western flower thrips ([1]; 50 ppm) | insecticidal efficacy (corrected mortality rate) against western flower thrips ([1]; 500 ppm) | insecticidal efficacy (corrected mortality rate) against small brown planthopper ([2]; 50 ppm) | insecticidal efficacy (corrected mortality rate) against small brown planthopper ([2]; 500 ppm)

COC(=O)N1C(=O)C(C(=S)Nc2ccc(F)c(C)c2)=C(O)CN1c1ccc(C#N)nc1 [4-63]
A (the mortality rate is 100%): insecticidal efficacy (corrected mortality rate) against western flower thrips ([1]; 50 ppm) | insecticidal efficacy (corrected mortality rate) against western flower thrips ([1]; 500 ppm) | insecticidal efficacy (corrected mortality rate) against small brown planthopper ([2]; 50 ppm) | insecticidal efficacy (corrected mortality rate) against small brown planthopper ([2]; 500 ppm)

COC(=O)N1C(=O)C(C(=O)Nc2ccc(Cl)nn2)=C(O)CN1c1ccc(C#N)nc1 [3-421]
A (the mortality rate is 100%): insecticidal efficacy (corrected mortality rate) against western flower thrips ([1]; 50 ppm) | insecticidal efficacy (corrected mortality rate) against western flower thrips ([1]; 500 ppm) | insecticidal efficacy (corrected mortality rate) against small brown planthopper ([2]; 50 ppm) | insecticidal efficacy (corrected mortality rate) against small brown planthopper ([2]; 500 ppm)

COC(=O)N1C(=O)C(C(=O)Nc2ccc(OC)cn2)=C(O)CN1c1ccc(C#N)c(F)c1 [3-217]
A (the mortality rate is 100%): insecticidal efficacy (corrected mortality rate) against western flower thrips ([1]; 500 ppm) | insecticidal efficacy (corrected mortality rate) against small brown planthopper ([2]; 50 ppm) | insecticidal efficacy (corrected mortality rate) against small brown planthopper ([2]; 500 ppm)

Cn1ccc(NC(=O)C2=C(O)CN(c3ccc(Cl)cc3)NC2=O)n1 [1-339]
A (the mortality rate is 100%): insecticidal efficacy (corrected mortality rate) against western flower thrips ([1]; 50 ppm) | insecticidal efficacy (corrected mortality rate) against western flower thrips ([1]; 500 ppm) | insecticidal efficacy (corrected mortality rate) against small brown planthopper ([2]; 50 ppm) | insecticidal efficacy (corrected mortality rate) against small brown planthopper ([2]; 500 ppm)

COC(=O)N1C(=O)C(C(=O)Nc2ccc(F)cc2)=C(O)CN1c1ncc(Cl)cn1 [3-240]
A (the mortality rate is 100%): insecticidal efficacy (corrected mortality rate) against western flower thrips ([1]; 50 ppm) | insecticidal efficacy (corrected mortality rate) against western flower thrips ([1]; 500 ppm) | insecticidal efficacy (corrected mortality rate) against small brown planthopper ([2]; 50 ppm) | insecticidal efficacy (corrected mortality rate) against small brown planthopper ([2]; 500 ppm)

CCCOC(=O)N1C(=O)C(C(=O)Nc2ccn(C)n2)=C(O)CN1c1ccc(Br)nc1 [3-649]
A (the mortality rate is 100%): insecticidal efficacy (corrected mortality rate) against western flower thrips ([1]; 50 ppm) | insecticidal efficacy (corrected mortality rate) against western flower thrips ([1]; 500 ppm) | insecticidal efficacy (corrected mortality rate) against small brown planthopper ([2]; 50 ppm) | insecticidal efficacy (corrected mortality rate) against small brown planthopper ([2]; 500 ppm)

COc1cc(NC(=O)C2=C(O)CN(c3ccc(C#N)cc3)NC2=O)ccn1 [1-237]
A (the mortality rate is 100%): insecticidal efficacy (corrected mortality rate) against western flower thrips ([1]; 500 ppm) | insecticidal efficacy (corrected mortality rate) against small brown planthopper ([2]; 50 ppm) | insecticidal efficacy (corrected mortality rate) against small brown planthopper ([2]; 500 ppm)

COC(=O)N1C(=O)C(C(=O)Nc2cccc(C#N)c2)=C(O)CN1c1ccc(C#N)cc1 [3-443]
A (the mortality rate is 100%): insecticidal efficacy (corrected mortality rate) against western flower thrips ([1]; 50 ppm) | insecticidal efficacy (corrected mortality rate) against western flower thrips ([1]; 500 ppm) | insecticidal efficacy (corrected mortality rate) against small brown planthopper ([2]; 50 ppm) | insecticidal efficacy (corrected mortality rate) against small brown planthopper ([2]; 500 ppm)

Cn1nnnc1-c1ccc(N2CC(O)=C(C(=O)Nc3ccc(F)cn3)C(=O)N2)cn1 [1-172]
A (the mortality rate is 100%): insecticidal efficacy (corrected mortality rate) against western flower thrips ([1]; 500 ppm) | insecticidal efficacy (corrected mortality rate) against small brown planthopper ([2]; 500 ppm)

COC(=O)N1C(=O)C(C(=O)Nc2cc(C)cc(C)n2)=C(O)CN1c1ccc(C#N)c(Cl)c1 [3-643]
A (the mortality rate is 100%): insecticidal efficacy (corrected mortality rate) against western flower thrips ([1]; 50 ppm) | insecticidal efficacy (corrected mortality rate) against western flower thrips ([1]; 500 ppm) | insecticidal efficacy (corrected mortality rate) against small brown planthopper ([2]; 50 ppm) | insecticidal efficacy (corrected mortality rate) against small brown planthopper ([2]; 500 ppm)

COC(=O)N1C(=O)C(C(=S)Nc2cccc(C)c2)=C(O)CN1c1ccc(C#N)nc1 [4-88]
A (the mortality rate is 100%): insecticidal efficacy (corrected mortality rate) against western flower thrips ([1]; 50 ppm) | insecticidal efficacy (corrected mortality rate) against western flower thrips ([1]; 500 ppm) | insecticidal efficacy (corrected mortality rate) against small brown planthopper ([2]; 500 ppm)

CCn1cc(NC(=O)C2=C(O)CN(c3ccc(C(F)(F)F)nc3)NC2=O)cn1 [1-43]
A (the mortality rate is 100%): insecticidal efficacy (corrected mortality rate) against western flower thrips ([1]; 500 ppm) | insecticidal efficacy (corrected mortality rate) against small brown planthopper ([2]; 500 ppm)

COC(=O)N1C(=O)C(C(=O)Nc2ccccc2F)=C(O)CN1c1ccc(C#N)cc1 [3-432]
A (the mortality rate is 100%): insecticidal efficacy (corrected mortality rate) against western flower thrips ([1]; 50 ppm) | insecticidal efficacy (corrected mortality rate) against western flower thrips ([1]; 500 ppm) | insecticidal efficacy (corrected mortality rate) against small brown planthopper ([2]; 50 ppm) | insecticidal efficacy (corrected mortality rate) against small brown planthopper ([2]; 500 ppm)

COC(=O)N1C(=O)C(C(=O)Nc2cccc(OC)n2)=C(O)CN1c1ccc(Br)nc1 [3-398]
A (the mortality rate is 100%): insecticidal efficacy (corrected mortality rate) against western flower thrips ([1]; 50 ppm) | insecticidal efficacy (corrected mortality rate) against western flower thrips ([1]; 500 ppm) | insecticidal efficacy (corrected mortality rate) against small brown planthopper ([2]; 50 ppm) | insecticidal efficacy (corrected mortality rate) against small brown planthopper ([2]; 500 ppm)

COC(=O)N1C(=O)C(C(=O)Nc2ccc(C#N)cc2)=C(O)CN1c1ccc(Br)nc1 [3-393]
A (the mortality rate is 100%): insecticidal efficacy (corrected mortality rate) against western flower thrips ([1]; 50 ppm) | insecticidal efficacy (corrected mortality rate) against western flower thrips ([1]; 500 ppm) | insecticidal efficacy (corrected mortality rate) against small brown planthopper ([2]; 50 ppm) | insecticidal efficacy (corrected mortality rate) against small brown planthopper ([2]; 500 ppm)

COC(=O)N1C(=O)C(C(=O)Nc2ccc(Cl)cn2)=C(O)CN1c1ccc(C#N)nc1 [3-195]
A (the mortality rate is 100%): insecticidal efficacy (corrected mortality rate) against western flower thrips ([1]; 50 ppm) | insecticidal efficacy (corrected mortality rate) against western flower thrips ([1]; 500 ppm) | insecticidal efficacy (corrected mortality rate) against small brown planthopper ([2]; 50 ppm) | insecticidal efficacy (corrected mortality rate) against small brown planthopper ([2]; 500 ppm)

COC(=O)N1C(=O)C(C(=O)Nc2ccc(Cl)cn2)=C(O)CN1c1ccc(C#N)cc1 [3-232]
A (the mortality rate is 100%): insecticidal efficacy (corrected mortality rate) against western flower thrips ([1]; 50 ppm) | insecticidal efficacy (corrected mortality rate) against western flower thrips ([1]; 500 ppm) | insecticidal efficacy (corrected mortality rate) against small brown planthopper ([2]; 50 ppm) | insecticidal efficacy (corrected mortality rate) against small brown planthopper ([2]; 500 ppm)
